The other results are listed elsewhere or left out.
Assays:
Assay in all cases: log2 fold change, soluble protein after heating vs DMSO (PISA); higher = thermal stabilisation; K562 cells, 10 uM, 30 min; active = over 0.2 and 3.5 SD of the protein, either way, in both replicates (recomputed)
[1] = compound: CS(=O)(=O)c1ccc(-c2cnc(N)c(C(=O)Nc3ccccc3)n2)cc1
Method in brief: (§1)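 K562 cells at 2×10^6 cells/mL were exposed to 10 μM compound for 30 min, then aliquots were heated for 3 min across 48°C-58°C, pooled, and extracted in PBS containing 0.5% NP-40 at 4°C. The supernatant after 21,000xg for 90 min was taken as soluble protein and measured by TMTpro 16plex LC-MS/MS with channel sums equalised. Thermal stability is reported relative to control samples, with values from duplicates. Fold changes are given on a log2 scale.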

Protein sequences, listed by entry. Tags and fused reporters are not part of them. Lines headed by an entry give the natural chain unless they say otherwise; changes in a name come on top.
UniProt Q13043: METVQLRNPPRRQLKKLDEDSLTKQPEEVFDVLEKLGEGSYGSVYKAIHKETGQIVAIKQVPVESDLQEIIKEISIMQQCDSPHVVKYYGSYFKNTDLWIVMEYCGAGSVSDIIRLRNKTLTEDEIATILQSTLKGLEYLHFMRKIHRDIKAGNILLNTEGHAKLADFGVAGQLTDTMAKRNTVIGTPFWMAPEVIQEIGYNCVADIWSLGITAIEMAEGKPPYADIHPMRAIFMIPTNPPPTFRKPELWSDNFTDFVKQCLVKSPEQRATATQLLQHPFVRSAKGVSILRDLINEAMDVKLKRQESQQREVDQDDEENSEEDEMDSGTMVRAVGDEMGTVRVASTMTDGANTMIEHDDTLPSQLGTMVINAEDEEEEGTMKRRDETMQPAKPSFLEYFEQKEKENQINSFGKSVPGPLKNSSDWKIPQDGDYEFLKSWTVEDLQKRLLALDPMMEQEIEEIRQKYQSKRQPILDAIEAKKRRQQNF
UniProt Q9UJZ1: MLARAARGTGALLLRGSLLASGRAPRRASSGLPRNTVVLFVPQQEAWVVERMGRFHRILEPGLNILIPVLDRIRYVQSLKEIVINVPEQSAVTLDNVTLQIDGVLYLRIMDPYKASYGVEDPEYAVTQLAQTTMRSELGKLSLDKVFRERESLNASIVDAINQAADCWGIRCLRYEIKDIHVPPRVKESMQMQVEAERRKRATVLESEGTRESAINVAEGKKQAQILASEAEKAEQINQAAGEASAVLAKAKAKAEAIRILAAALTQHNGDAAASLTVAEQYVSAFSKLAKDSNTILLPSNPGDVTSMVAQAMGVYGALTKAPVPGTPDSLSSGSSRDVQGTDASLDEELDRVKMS
UniProt Q17R31: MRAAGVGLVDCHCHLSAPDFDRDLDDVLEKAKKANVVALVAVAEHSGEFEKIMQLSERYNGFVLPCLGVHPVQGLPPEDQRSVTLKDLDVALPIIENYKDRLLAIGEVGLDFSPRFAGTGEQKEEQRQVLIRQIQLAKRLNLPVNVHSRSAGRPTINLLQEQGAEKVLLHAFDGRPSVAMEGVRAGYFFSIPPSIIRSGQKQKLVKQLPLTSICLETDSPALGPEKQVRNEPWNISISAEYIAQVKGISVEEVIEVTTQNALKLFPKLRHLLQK
UniProt Q15545, whole entry, looked up: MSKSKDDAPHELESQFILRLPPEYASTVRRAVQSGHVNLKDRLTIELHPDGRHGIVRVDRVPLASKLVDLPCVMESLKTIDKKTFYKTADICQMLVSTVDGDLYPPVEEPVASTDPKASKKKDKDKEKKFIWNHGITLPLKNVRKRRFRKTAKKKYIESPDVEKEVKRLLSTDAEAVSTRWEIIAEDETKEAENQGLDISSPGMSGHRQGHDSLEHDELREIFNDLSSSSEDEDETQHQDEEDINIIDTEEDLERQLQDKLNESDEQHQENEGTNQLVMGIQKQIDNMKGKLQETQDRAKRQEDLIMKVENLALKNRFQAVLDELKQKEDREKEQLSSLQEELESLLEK
UniProt O75410: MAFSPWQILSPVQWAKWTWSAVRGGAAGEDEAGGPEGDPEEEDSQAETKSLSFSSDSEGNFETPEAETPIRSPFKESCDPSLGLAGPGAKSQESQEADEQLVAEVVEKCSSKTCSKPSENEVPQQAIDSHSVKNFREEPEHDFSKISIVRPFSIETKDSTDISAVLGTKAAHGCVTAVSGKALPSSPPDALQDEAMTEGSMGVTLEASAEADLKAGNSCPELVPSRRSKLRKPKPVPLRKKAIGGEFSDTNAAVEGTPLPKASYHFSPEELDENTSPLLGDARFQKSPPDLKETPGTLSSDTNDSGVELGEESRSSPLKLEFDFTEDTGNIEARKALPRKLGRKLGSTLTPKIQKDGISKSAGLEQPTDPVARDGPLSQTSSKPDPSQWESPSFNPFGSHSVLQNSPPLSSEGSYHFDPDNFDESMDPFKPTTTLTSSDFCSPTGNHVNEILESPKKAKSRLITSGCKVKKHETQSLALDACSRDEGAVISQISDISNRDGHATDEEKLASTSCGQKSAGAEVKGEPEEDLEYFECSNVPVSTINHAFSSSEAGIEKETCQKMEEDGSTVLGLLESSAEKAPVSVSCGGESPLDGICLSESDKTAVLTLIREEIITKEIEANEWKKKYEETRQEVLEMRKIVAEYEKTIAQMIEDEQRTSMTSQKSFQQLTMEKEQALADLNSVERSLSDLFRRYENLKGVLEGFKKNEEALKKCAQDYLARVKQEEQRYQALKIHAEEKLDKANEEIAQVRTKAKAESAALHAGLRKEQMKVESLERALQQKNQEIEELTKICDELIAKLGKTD
UniProt A2RTX5: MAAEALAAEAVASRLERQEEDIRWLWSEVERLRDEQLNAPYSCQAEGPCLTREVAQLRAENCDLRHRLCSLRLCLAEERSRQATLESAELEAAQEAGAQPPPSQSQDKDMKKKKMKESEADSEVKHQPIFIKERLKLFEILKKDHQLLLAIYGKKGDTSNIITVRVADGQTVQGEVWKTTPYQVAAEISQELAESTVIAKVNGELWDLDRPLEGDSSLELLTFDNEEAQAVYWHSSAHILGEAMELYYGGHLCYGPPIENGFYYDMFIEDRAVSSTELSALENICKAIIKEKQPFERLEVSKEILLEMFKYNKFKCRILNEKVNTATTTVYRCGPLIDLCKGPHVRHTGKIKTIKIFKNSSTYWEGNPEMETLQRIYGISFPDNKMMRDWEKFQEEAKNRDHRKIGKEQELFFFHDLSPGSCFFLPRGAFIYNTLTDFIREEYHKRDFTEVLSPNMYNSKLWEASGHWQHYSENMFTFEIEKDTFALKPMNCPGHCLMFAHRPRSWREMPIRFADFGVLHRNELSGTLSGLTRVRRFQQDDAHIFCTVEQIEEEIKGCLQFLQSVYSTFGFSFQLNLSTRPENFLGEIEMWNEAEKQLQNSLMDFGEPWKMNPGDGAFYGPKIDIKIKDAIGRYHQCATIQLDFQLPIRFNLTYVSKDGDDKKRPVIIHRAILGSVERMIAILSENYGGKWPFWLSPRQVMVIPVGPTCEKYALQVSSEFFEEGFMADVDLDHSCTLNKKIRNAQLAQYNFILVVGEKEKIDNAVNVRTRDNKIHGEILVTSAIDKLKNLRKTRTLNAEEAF
UniProt Q9Y3F4: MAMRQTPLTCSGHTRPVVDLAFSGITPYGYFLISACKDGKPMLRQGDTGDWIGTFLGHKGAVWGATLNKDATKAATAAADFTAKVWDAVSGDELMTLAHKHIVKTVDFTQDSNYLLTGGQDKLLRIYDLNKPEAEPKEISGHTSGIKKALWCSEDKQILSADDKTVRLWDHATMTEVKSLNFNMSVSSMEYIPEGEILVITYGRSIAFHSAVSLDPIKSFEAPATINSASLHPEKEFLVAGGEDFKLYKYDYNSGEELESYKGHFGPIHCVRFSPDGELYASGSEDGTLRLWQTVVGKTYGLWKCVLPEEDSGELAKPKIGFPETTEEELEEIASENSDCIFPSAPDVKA
UniProt Q13148, whole entry, looked up: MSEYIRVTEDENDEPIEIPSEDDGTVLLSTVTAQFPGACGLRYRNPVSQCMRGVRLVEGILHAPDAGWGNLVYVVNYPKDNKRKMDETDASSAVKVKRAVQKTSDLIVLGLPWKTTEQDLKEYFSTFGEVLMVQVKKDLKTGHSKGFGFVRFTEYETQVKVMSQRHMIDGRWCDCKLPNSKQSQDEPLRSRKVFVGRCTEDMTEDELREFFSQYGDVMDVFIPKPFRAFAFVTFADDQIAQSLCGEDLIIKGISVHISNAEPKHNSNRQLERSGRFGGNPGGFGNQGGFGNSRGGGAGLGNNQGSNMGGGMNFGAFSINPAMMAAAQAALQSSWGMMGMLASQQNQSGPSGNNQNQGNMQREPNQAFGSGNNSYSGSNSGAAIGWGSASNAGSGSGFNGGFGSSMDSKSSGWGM
UniProt Q13033: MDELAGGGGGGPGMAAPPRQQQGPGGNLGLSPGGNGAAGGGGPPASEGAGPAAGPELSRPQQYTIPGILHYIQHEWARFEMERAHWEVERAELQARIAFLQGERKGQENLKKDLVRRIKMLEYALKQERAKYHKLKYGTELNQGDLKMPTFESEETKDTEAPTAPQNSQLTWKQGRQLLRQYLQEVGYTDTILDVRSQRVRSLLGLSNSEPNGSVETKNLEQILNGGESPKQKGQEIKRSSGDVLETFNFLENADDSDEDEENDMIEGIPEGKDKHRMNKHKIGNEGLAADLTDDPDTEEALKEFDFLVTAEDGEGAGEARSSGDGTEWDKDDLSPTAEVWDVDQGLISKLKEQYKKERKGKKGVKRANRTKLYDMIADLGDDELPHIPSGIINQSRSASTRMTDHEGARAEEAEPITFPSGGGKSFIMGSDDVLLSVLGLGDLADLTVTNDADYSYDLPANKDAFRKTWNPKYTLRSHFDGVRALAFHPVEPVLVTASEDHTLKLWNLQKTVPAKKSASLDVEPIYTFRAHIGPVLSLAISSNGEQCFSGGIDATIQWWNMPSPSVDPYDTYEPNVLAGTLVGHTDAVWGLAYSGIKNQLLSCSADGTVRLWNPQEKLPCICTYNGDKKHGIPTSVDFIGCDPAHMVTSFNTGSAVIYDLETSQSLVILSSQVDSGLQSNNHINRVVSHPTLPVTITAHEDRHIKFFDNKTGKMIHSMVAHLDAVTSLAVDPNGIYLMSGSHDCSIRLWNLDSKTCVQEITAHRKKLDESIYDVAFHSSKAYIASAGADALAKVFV
UniProt Q5VSL9: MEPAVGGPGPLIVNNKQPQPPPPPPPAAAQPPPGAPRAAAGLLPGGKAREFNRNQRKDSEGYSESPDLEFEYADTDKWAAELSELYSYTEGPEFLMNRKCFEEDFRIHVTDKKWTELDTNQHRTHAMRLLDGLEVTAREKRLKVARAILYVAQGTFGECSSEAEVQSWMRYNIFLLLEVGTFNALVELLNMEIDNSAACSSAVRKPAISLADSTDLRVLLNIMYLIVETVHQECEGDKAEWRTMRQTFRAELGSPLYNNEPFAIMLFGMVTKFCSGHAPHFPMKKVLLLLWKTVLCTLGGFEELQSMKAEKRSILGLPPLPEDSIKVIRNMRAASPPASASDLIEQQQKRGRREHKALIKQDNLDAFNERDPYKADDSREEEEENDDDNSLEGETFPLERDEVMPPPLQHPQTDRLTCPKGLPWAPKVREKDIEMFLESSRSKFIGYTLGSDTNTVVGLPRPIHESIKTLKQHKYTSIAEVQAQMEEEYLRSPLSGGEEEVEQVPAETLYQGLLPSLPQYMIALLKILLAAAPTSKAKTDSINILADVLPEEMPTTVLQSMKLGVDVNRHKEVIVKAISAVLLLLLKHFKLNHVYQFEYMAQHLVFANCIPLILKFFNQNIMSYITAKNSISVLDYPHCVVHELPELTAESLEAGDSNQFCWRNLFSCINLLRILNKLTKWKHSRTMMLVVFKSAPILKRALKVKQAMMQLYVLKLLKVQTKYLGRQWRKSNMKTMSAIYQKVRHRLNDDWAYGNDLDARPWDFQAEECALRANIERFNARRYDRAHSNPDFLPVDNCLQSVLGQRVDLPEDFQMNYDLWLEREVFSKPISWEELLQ
UniProt P37837: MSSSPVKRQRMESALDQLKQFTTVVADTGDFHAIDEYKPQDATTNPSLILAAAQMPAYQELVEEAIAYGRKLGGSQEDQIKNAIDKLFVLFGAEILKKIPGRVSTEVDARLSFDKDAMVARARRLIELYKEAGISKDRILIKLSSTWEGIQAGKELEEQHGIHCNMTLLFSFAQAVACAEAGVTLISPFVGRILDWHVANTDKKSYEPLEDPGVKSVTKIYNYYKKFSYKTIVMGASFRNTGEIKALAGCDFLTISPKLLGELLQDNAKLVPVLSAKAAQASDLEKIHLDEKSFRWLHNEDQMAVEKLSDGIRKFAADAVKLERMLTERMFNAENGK
UniProt Q16514: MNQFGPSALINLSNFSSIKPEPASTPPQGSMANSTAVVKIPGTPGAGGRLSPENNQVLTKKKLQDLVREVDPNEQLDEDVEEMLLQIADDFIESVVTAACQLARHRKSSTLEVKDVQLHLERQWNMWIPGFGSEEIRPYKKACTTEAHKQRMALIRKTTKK
UniProt Q92844: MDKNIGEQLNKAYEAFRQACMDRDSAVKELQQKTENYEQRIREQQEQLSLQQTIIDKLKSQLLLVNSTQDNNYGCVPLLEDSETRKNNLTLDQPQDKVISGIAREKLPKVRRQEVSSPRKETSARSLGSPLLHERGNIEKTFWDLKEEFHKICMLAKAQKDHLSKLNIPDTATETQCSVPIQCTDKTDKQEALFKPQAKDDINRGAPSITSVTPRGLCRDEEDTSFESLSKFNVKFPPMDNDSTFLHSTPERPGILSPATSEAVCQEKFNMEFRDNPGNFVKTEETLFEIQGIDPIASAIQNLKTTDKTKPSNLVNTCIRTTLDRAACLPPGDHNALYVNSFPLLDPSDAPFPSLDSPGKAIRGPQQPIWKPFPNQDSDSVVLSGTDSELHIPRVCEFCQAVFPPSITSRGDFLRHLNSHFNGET

crizotinib = compound: C[C@@H](Oc1cc(-c2cnn(C3CCNCC3)c2)cnc1N)c1c(Cl)ccc(F)c1Cl [crizotinib]
Method in brief: as §1

[2] = compound: C[C@@H]1COCCN1C2=NC(=NC(=C2)C3(CC3)S(=O)(=O)C)C4=C5C=CNC5=CC=C4
Method in brief: as §1

[3] = compound: C[C@H](C1=CC=C(C=C1)C(=O)NC2=C3C=CNC3=NC=C2)N
Method in brief: as §1

duvelisib = compound: C[C@H](Nc1ncnc2nc[nH]c12)c1cc2cccc(Cl)c2c(=O)n1-c1ccccc1 [duvelisib]
Method in brief: as §1

gandotinib = compound: Cc1cc(Nc2cc(CN3CCOCC3)c3nc(C)c(Cc4ccc(Cl)cc4F)n3n2)n[nH]1 [gandotinib]
Method in brief: as §1

tozasertib = compound: Cc1cc(Nc2cc(N3CCN(C)CC3)nc(Sc3ccc(NC(=O)C4CC4)cc3)n2)n[nH]1 [tozasertib]
Method in brief: as §1

[4] = compound: Cc1cc(SCc2sc(-c3ccc(C(F)(F)F)cc3)nc2C)ccc1OCC(=O)O
Method in brief: as §1

doramapimod = compound: Cc1ccc(-n2nc(C(C)(C)C)cc2NC(=O)Nc2ccc(OCCN3CCOCC3)c3ccccc23)cc1 [doramapimod]
Method in brief: as §1

ispinesib = compound: Cc1ccc(C(=O)N(CCCN)[C@@H](c2nc3cc(Cl)ccc3c(=O)n2Cc2ccccc2)C(C)C)cc1 [ispinesib]
Method in brief: as §1

bafetinib = compound: Cc1ccc(NC(=O)c2ccc(CN3CC[C@H](N(C)C)C3)c(C(F)(F)F)c2)cc1Nc1nccc(-c2cncnc2)n1 [bafetinib]
Method in brief: as §1

[5] = compound: Cc1cccc(CC(=O)N2CCc3c2ccc(-c2cn(C)c4ncnc(N)c24)c3F)n1
Method in brief: as §1

nilotinib = compound: Cc1cn(-c2cc(NC(=O)c3ccc(C)c(Nc4nccc(-c5cccnc5)n4)c3)cc(C(F)(F)F)c2)cn1 [nilotinib]
Method in brief: as §1

[6] = compound: Cc1nc(Nc2n[nH]c3c2CN(C(=O)N[C@H](CN(C)C)c2ccccc2)C3(C)C)c2sccc2n1
Method in brief: as §1

dasatinib = compound: Cc1nc(Nc2ncc(C(=O)Nc3c(C)cccc3Cl)s2)cc(N2CCN(CCO)CC2)n1 [dasatinib]
Method in brief: as §1

[7] = compound: Cc1ncc(-c2ccnc(Nc3ccc(S(C)(=O)=O)cc3)n2)n1C(C)C
Method in brief: as §1

[8] = compound: Cn1cc(-c2ccc3c(c2)CCN3C(=O)Cc2cccc(C(F)(F)F)c2)c2c(N)ncnc21
Method in brief: as §1

[9] = compound: Cn1cc(-c2ccc3nnc(C(F)(F)c4ccc5ncccc5c4)n3n2)cn1
Method in brief: as §1

tipifarnib = compound: Cn1cncc1[C@@](N)(c1ccc(Cl)cc1)c1ccc2c(c1)c(-c1cccc(Cl)c1)cc(=O)n2C [tipifarnib]
Method in brief: as §1

mubritinib = compound: FC(F)(F)c1ccc(/C=C/c2nc(COc3ccc(CCCCn4ccnn4)cc3)co2)cc1 [mubritinib]
Method in brief: as §1

Target	log2 fold change [1]	log2 fold change (crizotinib)	log2 fold change [2]	log2 fold change [3]	log2 fold change (duvelisib)	log2 fold change (gandotinib)	log2 fold change (tozasertib)	log2 fold change [4]	log2 fold change (doramapimod)	log2 fold change (ispinesib)	log2 fold change (bafetinib)	log2 fold change [5]	log2 fold change (nilotinib)	log2 fold change [6]	log2 fold change (dasatinib)	log2 fold change [7]	log2 fold change [8]	log2 fold change [9]	log2 fold change (tipifarnib)	log2 fold change (mubritinib)
STX18 (UniProt Q9P2W9)	inactive: 0.012	inactive: -0.041	inactive: 0.029	inactive: 0.054	inactive: 0.032	inactive: -0.055	inactive: -0.014	inactive: 0.109	inactive: 0.048	inactive: -0.095	inactive: 0.015	inactive: 0.082	inactive: -0.07	inactive: -0.073	inactive: -0.089	inactive: -0.014	inactive: 0	inactive: -0.042	inactive: -0.037	inactive: 0.052
STK4 (UniProt Q13043)	inactive: 0.009	inactive: -0.01	inactive: 0.032	inactive: 0.036		inactive: 0.043		inactive: -0.004	inactive: -0.008	inactive: -0.03	inactive: -0.053	inactive: -0.027	inactive: -0.003	inactive: 0.143	inactive: -0.052	inactive: -0.016	inactive: 0.005	inactive: 0	inactive: 0.039	inactive: -0.028
STOML2 (UniProt Q9UJZ1)	inactive: -0.02	inactive: 0.075	inactive: -0.021	inactive: 0.031	inactive: 0.039	inactive: -0.097	inactive: -0.003	inactive: -0.019	inactive: -0.014	inactive: 0.051	inactive: 0.004	inactive: -0.089	inactive: -0.003	inactive: 0.016	inactive: 0.046	inactive: -0.009	inactive: 0.04	inactive: -0.005	inactive: 0.049	inactive: -0.009
SUCO (UniProt Q9UBS9)	inactive: 0.117	inactive: -0.36	inactive: 0.028	inactive: 0.347	inactive: -0.093	inactive: 0.08	inactive: -0.053	inactive: 0.041	inactive: -0.152	inactive: -0.185		inactive: -0.08			inactive: -0.096		inactive: -0.084	inactive: 0.085	inactive: -0.008	inactive: -0.024
STX5 (UniProt Q13190)	inactive: 0.064	inactive: 0.007	inactive: 0.317	inactive: 0.142	inactive: -0.037	inactive: 0.03	inactive: -0.037	inactive: 0.036	inactive: 0.05	inactive: 0.009	inactive: 0.049	inactive: -0.026	inactive: -0.26	inactive: -0.305	inactive: -0.142	inactive: 0.056	inactive: 0.022	inactive: 0.035	inactive: -0.09	inactive: 0.07
TATDN3 isoform 3 (UniProt Q17R31)	inactive: -0.001	inactive: 0.014	inactive: 0.05	inactive: 0.131	inactive: -0.022	inactive: -0.088	inactive: -0.06	inactive: -0.02	inactive: 0.008	inactive: 0.011	inactive: -0.051	inactive: 0.016	inactive: -0.01	inactive: 0.009	inactive: -0.022	inactive: 0.035	inactive: 0.049	inactive: -0.021	inactive: 0.083	inactive: 0.039
TAF7 (UniProt Q15545)	inactive: -0.07	inactive: 0.009	inactive: -0.045	inactive: -0.049	inactive: -0.001	inactive: -0.022	inactive: -0.031	inactive: -0.013	inactive: 0.009	inactive: 0	inactive: -0.102	inactive: 0.017	inactive: -0.037	inactive: -0.056	inactive: 0.005	inactive: 0.014	inactive: -0.012	inactive: 0.005	inactive: -0.009	inactive: 0.014
TACC1 isoform 2 (UniProt O75410)	inactive: 0.037	inactive: 0.047	inactive: 0.059	inactive: 0.005	inactive: 0.067	inactive: -0.006	inactive: 0.011	inactive: -0.016	inactive: 0.002	inactive: -0.03	inactive: -0.069	inactive: -0.02	inactive: 0.006	inactive: 0.04	inactive: -0.028	inactive: -0.052	inactive: 0.02	inactive: 0.017	inactive: 0.028	inactive: 0.031
TARSL2 (UniProt A2RTX5)	inactive: 0.015	inactive: -0.16	inactive: 0.081	inactive: -0.012	inactive: 0.063	inactive: -0.08	inactive: -0.072	inactive: 0.006	inactive: 0.072	inactive: -0.134	inactive: -0.049	inactive: 0.048	inactive: -0.026	inactive: -0.046	inactive: -0.092	inactive: -0.025	inactive: 0.093	inactive: 0.087	inactive: -0.062	inactive: 0.106
STRAP isoform 2 (UniProt Q9Y3F4)	inactive: -0.005	inactive: 0.052	inactive: 0.042	inactive: 0.036	inactive: 0.006	inactive: -0.01	inactive: -0.013	inactive: -0.021	inactive: 0.014	inactive: 0.003	inactive: -0.003	inactive: -0.038	inactive: -0.004	inactive: 0.039	inactive: 0.044	inactive: 0.008	inactive: -0.023	inactive: -0.007	inactive: -0.053	inactive: 0.005
TARDBP (UniProt Q13148)	inactive: 0.036	inactive: -0.069	inactive: -0.051	inactive: 0.298		inactive: -0.051	inactive: 0.073		inactive: 0.049	inactive: -0.099	inactive: 0.04	inactive: 0.067	inactive: 0.043	inactive: -0.099		inactive: 0.097	inactive: -0.086	inactive: -0.087	inactive: -0.084	inactive: -0.126
STRN3 (UniProt Q13033)	inactive: 0.047	inactive: 0.015	inactive: 0.119	inactive: 0.001	inactive: -0.013	inactive: 0.043	inactive: 0.003	inactive: 0.022	inactive: -0.046	inactive: 0.018	inactive: -0.055	inactive: 0.016	inactive: -0.029	inactive: 0.09	inactive: 0.021	inactive: 0.015	inactive: -0.009	inactive: 0.032	inactive: -0.068	inactive: 0.032
SWI5 (UniProt Q1ZZU3)	inactive: 0.087	inactive: 0.017	inactive: 0.092	inactive: -0.074	inactive: 0.234	inactive: -0.16		inactive: -0.12	inactive: 0.084		inactive: 0.057	inactive: 0.021	inactive: -0.047	inactive: 0	inactive: 0.105	inactive: 0.019	inactive: 0.002		inactive: -0.163	
STRIP1 (UniProt Q5VSL9)	inactive: -0.076	inactive: 0.04	inactive: 0.055	inactive: 0.096	inactive: 0.023	inactive: -0.001	inactive: -0.01	inactive: 0.047	inactive: 0.106	inactive: 0.048	inactive: 0.117	inactive: -0.02	inactive: -0.026	inactive: -0.052	inactive: -0.091	inactive: 0.009	inactive: -0.014	inactive: -0.016	inactive: -0.095	inactive: -0.002
TALDO1 (UniProt P37837)	inactive: -0.002	inactive: -0.035	inactive: 0.041	inactive: -0.095	inactive: 0.02	inactive: -0.102	inactive: -0.017	inactive: 0.042	inactive: -0.015	inactive: -0.012	inactive: -0.02	inactive: 0.069	inactive: -0.057	inactive: 0.005	inactive: -0.071	inactive: -0.029	inactive: 0.061	inactive: 0.051	inactive: -0.076	inactive: 0.101
TAF12 (UniProt Q16514)	inactive: -0.049	inactive: -0.06				inactive: 0.082	inactive: 0.01		inactive: 0.096		inactive: 0.008	inactive: -0.018	inactive: -0.043	inactive: -0.007		inactive: 0.113			inactive: -0.001	inactive: 0.014
TANK (UniProt Q92844)	inactive: -0.032	inactive: 0.287	inactive: -0.021	inactive: 0.069		inactive: 0.135		inactive: 0.091	inactive: -0.015	inactive: -0.064	inactive: -0.049	inactive: -0.106	inactive: 0.054	active: 0.337	inactive: -0.025	inactive: 0.082	inactive: -0.021	inactive: -0.036	inactive: -0.016	inactive: 0.03

Four consecutive records already listed, for reference:
Target	log2 fold change [1]	log2 fold change (crizotinib)	log2 fold change [2]	log2 fold change [3]	log2 fold change (duvelisib)	log2 fold change (gandotinib)	log2 fold change (tozasertib)	log2 fold change [4]	log2 fold change (doramapimod)	log2 fold change (ispinesib)	log2 fold change (bafetinib)	log2 fold change [5]	log2 fold change (nilotinib)	log2 fold change [6]	log2 fold change (dasatinib)	log2 fold change [7]	log2 fold change [8]	log2 fold change [9]	log2 fold change (tipifarnib)	log2 fold change (mubritinib)
STX18 (UniProt Q9P2W9)	inactive: 0.012	inactive: -0.041	inactive: 0.029	inactive: 0.054	inactive: 0.032	inactive: -0.055	inactive: -0.014	inactive: 0.109	inactive: 0.048	inactive: -0.095	inactive: 0.015	inactive: 0.082	inactive: -0.07	inactive: -0.073	inactive: -0.089	inactive: -0.014	inactive: 0	inactive: -0.042	inactive: -0.037	inactive: 0.052
STK4 (UniProt Q13043)	inactive: 0.009	inactive: -0.01	inactive: 0.032	inactive: 0.036		inactive: 0.043		inactive: -0.004	inactive: -0.008	inactive: -0.03	inactive: -0.053	inactive: -0.027	inactive: -0.003	inactive: 0.143	inactive: -0.052	inactive: -0.016	inactive: 0.005	inactive: 0	inactive: 0.039	inactive: -0.028
STOML2 (UniProt Q9UJZ1)	inactive: -0.02	inactive: 0.075	inactive: -0.021	inactive: 0.031	inactive: 0.039	inactive: -0.097	inactive: -0.003	inactive: -0.019	inactive: -0.014	inactive: 0.051	inactive: 0.004	inactive: -0.089	inactive: -0.003	inactive: 0.016	inactive: 0.046	inactive: -0.009	inactive: 0.04	inactive: -0.005	inactive: 0.049	inactive: -0.009
SUCO (UniProt Q9UBS9)	inactive: 0.117	inactive: -0.36	inactive: 0.028	inactive: 0.347	inactive: -0.093	inactive: 0.08	inactive: -0.053	inactive: 0.041	inactive: -0.152	inactive: -0.185		inactive: -0.08			inactive: -0.096		inactive: -0.084	inactive: 0.085	inactive: -0.008	inactive: -0.024

Reference: the supplement of paper PMC10849652
